Target: T1, cI (Homo sapiens, UniProt O75251+O75306+P03886)
T1 construct: endogenous in cells; host or cells: LUHMES cells, digitonin-permeabilized
Assay type: cell-based
Settings: LUHMES
Protocol: To investigate individual respiratory chain complexes, a method developed earlier and described extensively was used (Delp et al. [2019]). In brief, LUHMES cells were seeded at a density of 205,000 cells/cm^2 in PM into Agilent Seahorse XFe24-well plates. […] To reduce data variability, internal normalization of the OCR of each well was done relative to its value after equilibration.

Chains of the proteins cited; added tags and fusions are not shown. Residues count along the entry.
UniProt O75251, 39-213: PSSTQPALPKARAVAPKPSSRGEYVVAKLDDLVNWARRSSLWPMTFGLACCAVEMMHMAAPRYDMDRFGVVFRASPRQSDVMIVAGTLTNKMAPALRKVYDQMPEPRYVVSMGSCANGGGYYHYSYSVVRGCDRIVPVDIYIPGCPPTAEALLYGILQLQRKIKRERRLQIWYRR
UniProt O75306, 34-463: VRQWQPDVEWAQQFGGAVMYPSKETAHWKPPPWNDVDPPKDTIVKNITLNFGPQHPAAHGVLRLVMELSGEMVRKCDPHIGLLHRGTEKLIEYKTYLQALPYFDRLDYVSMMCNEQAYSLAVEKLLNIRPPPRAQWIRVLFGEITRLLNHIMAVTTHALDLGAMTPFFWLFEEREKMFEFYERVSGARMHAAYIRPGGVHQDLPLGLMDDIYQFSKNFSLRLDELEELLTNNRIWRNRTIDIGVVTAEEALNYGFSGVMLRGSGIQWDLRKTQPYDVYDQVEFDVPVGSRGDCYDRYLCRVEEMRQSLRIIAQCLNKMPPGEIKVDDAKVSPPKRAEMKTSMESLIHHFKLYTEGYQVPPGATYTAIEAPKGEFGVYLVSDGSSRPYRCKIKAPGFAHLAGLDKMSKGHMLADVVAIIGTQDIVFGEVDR
UniProt P03886, whole entry: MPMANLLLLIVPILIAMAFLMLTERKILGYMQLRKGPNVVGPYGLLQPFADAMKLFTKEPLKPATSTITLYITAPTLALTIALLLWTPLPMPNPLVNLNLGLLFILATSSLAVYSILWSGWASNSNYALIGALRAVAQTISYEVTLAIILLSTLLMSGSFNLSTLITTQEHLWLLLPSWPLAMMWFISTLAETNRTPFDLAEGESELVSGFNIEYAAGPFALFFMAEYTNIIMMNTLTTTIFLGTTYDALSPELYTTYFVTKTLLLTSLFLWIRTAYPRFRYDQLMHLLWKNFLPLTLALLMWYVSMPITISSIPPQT

Compound: C=C(C)[C@H]1Cc2c(ccc3c2O[C@@H]2COc4cc(OC)c(OC)cc4[C@@H]2C3=O)O1 [Rotenone]
- cI inhibition at which neurite damage occurred: < 50%

From article PMC7870626, “Neurotoxicity and underlying cellular changes of 21 mitochondrial respiratory chain inhibitors” (Archives of Toxicology, 2021)
